Some of the results follow. Residues, ends and D or L forms follow the SMILES beside them. *: point of attachment. Cbz = O=C(OCc1ccccc1)*
How the values were obtained:
Experiment in all cases: log2 fold change, soluble protein after heating vs DMSO (PISA); higher = thermal stabilisation; K562 cells, 10 uM, 30 min; active = over 0.2 and 3.5 SD of the protein, either way, in both replicates (recomputed)
[1] = compound: C#Cc1cccc(Nc2ncnc3cc(OCCOC)c(OCCOC)cc23)c1 [erlotinib]
Summary of the method: (§1)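 K562 cells at 2×10^6 cells/mL were treated for 30 min with 10 μM compound, and aliquots were heated for 3 min over 48°C-58°C before pooling. Extraction used PBS with 0.5% NP-40 at 4°C, and soluble protein was the supernatant after 21,000xg for 90 min, measured by TMTpro 16plex LC-MS/MS with channel sums equalised. Thermal stability values, relative to control samples and from duplicates, are log2 fold changes.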

Chains of the proteins cited; added tags and fusions are not shown. Lines headed by an entry give the natural chain unless they say otherwise; changes in a name come on top.
UniProt P31939: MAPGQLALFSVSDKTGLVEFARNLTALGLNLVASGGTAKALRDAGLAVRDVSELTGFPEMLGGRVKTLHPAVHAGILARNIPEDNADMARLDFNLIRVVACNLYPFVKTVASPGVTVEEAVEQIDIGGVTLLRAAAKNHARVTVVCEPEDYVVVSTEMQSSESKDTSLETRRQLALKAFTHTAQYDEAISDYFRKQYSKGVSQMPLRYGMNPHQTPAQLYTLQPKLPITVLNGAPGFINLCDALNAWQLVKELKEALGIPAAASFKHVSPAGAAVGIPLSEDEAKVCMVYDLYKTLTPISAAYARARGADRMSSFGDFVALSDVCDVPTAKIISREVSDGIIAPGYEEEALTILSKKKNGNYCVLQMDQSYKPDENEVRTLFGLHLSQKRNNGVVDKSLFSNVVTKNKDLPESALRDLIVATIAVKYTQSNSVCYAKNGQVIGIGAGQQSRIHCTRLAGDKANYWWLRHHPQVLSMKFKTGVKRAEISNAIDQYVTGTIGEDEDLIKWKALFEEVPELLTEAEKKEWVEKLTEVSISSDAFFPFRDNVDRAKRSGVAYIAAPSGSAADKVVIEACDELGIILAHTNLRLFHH
UniProt P35670: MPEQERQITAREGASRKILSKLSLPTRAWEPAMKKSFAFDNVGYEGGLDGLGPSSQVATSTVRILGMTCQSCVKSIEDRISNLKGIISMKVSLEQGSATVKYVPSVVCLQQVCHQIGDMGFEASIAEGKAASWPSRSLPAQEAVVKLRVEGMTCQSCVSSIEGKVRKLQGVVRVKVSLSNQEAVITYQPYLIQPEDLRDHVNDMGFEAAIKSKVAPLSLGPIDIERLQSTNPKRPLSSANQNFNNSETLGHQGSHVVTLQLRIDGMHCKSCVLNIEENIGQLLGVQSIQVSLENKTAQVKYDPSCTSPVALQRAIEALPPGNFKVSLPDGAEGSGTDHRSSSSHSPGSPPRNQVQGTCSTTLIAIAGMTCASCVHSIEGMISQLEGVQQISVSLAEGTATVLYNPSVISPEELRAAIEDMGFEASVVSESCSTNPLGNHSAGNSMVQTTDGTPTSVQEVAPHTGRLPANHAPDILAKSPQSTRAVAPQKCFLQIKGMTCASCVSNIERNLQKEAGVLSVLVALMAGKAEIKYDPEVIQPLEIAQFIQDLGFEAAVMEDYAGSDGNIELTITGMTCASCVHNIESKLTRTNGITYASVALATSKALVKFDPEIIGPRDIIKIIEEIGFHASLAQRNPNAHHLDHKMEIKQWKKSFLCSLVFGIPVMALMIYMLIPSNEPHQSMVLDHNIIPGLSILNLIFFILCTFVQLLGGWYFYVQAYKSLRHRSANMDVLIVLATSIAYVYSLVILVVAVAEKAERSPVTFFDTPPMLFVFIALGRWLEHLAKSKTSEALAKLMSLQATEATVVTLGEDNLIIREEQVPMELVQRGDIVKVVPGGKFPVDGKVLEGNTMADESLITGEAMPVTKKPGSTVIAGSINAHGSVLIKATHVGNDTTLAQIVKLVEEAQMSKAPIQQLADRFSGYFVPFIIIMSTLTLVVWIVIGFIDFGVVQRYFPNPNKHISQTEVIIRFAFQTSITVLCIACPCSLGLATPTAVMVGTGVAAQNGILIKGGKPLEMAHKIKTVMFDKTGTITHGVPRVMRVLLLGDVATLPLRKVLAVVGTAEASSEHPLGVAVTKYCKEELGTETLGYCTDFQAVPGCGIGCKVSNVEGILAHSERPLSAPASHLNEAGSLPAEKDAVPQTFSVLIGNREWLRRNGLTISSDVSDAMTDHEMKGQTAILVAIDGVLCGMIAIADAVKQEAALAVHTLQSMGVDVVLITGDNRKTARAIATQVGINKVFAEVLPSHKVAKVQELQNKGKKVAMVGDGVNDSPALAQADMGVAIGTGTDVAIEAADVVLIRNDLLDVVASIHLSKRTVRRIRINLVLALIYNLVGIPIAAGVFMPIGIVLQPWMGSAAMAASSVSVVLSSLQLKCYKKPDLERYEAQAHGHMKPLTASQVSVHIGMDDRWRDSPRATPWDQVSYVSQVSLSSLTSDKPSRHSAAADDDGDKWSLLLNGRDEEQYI
UniProt Q16864, whole entry, looked up: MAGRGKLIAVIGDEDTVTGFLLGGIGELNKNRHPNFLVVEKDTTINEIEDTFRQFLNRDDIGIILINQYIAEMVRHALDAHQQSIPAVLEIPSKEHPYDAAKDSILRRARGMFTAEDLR
UniProt Q8IUR7, whole entry, looked up: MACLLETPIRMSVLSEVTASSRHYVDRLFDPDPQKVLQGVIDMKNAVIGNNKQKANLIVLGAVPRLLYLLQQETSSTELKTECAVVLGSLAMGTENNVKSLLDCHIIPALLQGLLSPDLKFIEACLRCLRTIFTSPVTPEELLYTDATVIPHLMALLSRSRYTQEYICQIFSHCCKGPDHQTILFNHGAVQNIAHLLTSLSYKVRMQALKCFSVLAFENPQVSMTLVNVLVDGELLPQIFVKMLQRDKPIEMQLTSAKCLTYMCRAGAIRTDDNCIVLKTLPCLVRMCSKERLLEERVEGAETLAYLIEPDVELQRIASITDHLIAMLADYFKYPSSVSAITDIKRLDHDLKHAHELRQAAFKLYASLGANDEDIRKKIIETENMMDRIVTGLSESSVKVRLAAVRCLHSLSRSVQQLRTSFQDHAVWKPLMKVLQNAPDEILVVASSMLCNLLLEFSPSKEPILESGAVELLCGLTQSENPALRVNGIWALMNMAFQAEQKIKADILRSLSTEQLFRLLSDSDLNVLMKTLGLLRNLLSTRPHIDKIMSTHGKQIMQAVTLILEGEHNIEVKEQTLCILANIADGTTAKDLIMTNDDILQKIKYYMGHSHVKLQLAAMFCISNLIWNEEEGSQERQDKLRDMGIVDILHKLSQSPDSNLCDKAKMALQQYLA
UniProt P98196: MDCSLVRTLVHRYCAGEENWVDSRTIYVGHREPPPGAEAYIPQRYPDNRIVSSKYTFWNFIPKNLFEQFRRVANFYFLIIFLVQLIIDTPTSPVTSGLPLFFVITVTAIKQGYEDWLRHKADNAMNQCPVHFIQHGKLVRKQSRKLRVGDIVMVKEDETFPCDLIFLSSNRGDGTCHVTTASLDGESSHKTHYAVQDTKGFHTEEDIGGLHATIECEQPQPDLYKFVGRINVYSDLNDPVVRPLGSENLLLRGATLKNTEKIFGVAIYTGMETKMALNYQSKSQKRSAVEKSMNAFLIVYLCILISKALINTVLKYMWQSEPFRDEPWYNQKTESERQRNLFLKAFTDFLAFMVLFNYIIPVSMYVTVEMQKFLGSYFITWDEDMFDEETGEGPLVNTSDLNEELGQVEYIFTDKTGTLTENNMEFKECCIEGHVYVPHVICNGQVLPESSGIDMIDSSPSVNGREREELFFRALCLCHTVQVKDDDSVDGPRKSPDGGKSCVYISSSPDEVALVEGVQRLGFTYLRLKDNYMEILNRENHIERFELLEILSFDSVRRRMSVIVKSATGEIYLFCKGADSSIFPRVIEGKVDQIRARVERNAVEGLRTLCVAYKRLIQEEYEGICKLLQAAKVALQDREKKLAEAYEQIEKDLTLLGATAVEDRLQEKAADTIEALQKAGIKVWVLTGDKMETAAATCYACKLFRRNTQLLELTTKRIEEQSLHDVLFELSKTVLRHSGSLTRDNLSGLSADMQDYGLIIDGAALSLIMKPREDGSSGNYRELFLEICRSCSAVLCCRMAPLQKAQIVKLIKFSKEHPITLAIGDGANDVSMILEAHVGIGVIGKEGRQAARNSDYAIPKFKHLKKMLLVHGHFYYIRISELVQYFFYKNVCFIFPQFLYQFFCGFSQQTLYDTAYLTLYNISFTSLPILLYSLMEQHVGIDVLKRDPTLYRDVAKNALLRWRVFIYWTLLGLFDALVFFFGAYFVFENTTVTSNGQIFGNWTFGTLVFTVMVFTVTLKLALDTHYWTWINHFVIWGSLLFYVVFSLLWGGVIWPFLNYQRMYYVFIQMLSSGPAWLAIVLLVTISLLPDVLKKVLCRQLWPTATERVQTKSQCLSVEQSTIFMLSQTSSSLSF
UniProt P14415, whole entry, looked up: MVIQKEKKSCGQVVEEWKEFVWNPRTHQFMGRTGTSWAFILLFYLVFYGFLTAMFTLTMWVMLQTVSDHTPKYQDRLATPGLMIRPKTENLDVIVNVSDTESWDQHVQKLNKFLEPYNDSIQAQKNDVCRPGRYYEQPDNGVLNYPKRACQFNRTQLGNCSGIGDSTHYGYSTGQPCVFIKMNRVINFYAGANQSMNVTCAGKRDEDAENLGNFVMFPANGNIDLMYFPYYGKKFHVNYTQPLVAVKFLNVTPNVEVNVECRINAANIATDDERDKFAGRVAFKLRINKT
UniProt Q8NBU5: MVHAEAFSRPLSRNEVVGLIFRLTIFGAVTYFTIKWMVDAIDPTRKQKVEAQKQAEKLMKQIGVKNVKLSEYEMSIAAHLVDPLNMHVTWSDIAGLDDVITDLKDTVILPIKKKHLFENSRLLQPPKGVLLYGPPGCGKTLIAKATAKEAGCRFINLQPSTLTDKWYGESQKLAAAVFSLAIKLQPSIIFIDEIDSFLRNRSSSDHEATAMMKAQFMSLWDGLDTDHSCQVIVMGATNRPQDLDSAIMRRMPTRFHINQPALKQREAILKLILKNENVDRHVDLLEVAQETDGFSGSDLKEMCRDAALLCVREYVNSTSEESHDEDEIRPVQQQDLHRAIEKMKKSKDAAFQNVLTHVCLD
UniProt Q9H0Y0: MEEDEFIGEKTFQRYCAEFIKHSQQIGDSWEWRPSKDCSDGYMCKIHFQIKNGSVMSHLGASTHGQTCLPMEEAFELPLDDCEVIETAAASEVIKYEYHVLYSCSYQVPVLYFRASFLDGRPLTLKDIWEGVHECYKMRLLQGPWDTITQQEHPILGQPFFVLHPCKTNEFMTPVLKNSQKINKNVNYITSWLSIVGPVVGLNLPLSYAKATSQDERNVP
UniProt Q8N5I2: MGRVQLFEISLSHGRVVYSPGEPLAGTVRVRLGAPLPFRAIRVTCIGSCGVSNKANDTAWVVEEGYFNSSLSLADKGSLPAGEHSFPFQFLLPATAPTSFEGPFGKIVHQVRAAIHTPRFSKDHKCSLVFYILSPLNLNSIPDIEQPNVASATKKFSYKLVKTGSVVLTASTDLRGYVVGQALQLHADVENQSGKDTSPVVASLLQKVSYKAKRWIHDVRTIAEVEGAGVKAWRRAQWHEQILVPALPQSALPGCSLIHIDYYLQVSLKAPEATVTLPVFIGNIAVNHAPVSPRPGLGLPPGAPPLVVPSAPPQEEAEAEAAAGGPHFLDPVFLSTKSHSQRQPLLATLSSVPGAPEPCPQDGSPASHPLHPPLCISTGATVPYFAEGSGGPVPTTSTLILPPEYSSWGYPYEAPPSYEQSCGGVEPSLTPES
UniProt O43861: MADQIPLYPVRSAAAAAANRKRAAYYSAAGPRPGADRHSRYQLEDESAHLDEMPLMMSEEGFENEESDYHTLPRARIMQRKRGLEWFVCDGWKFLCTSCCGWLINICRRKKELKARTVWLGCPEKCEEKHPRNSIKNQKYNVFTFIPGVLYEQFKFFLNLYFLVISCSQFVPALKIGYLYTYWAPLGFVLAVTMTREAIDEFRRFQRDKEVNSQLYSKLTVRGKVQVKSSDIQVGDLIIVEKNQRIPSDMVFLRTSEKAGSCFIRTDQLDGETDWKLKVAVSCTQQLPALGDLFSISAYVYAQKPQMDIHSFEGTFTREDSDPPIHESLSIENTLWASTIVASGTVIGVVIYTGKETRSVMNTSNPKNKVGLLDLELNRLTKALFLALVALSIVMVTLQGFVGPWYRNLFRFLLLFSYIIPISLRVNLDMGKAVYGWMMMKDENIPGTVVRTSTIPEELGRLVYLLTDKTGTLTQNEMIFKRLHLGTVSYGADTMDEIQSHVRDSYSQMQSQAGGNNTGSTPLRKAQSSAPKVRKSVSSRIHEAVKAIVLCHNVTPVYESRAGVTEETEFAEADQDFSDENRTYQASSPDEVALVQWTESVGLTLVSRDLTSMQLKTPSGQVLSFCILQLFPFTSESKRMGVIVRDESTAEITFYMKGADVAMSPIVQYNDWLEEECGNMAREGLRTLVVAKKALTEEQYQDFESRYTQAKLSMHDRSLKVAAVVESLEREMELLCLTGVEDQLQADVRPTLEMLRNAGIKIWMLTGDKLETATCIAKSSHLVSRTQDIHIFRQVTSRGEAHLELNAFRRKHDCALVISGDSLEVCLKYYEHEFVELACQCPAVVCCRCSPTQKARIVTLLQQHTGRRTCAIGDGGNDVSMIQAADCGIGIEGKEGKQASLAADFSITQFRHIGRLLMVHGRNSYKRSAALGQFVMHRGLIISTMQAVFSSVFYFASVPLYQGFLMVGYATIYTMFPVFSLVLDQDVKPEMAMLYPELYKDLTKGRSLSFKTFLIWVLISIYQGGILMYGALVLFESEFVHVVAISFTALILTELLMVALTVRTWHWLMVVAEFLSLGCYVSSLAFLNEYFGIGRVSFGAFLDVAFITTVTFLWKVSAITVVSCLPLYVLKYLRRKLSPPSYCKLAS

[2] = compound: C/C(=N\NC(=O)C1=CC(=CC=C1)S(=O)(=O)N2CCOCC2)/C3=C(C=CC(=C3)Cl)O
Summary of the method: as §1

[3] = compound: C1=CC(=C(C=C1Cl)C2=NC3=NC=CN=C3C(=N2)NC4=CC=NC=C4)F
Summary of the method: as §1

[4] = compound: C1=CC(=CC=C1C2=NC3=C(N2)C=C(C=C3)C(=O)N)OC4=CC=C(C=C4)Cl
Summary of the method: as §1

[5] = compound: C1=CC2=C(C=CC(=C2)/C=C\3/C(=O)NC(=NCC4=CC=CS4)S3)N=C1
Summary of the method: as §1

[6] = compound: C1=CC2=NC=CN=C2C=C1/C=C/3\C(=O)NC(=O)S3
Summary of the method: as §1

[7] = compound: C1=CC=C(C=C1)C2=NC(=C(N2)C3=CC=NC=C3)C4=CC(=C(C=C4)Cl)O
Summary of the method: as §1

[8] = compound: C1=CC=C2C(=C1)C3=NNC4=CC=CC(=C43)C2=O
Summary of the method: as §1

[9] = compound: C1CCN(C1)C(=O)NC2=CC=CC(=C2)NC3=NC=C(C(=N3)NCCC4=CN=CN4)Br
Summary of the method: as §1

[10] = compound: C1CN(CCC1(CC2=CC=C(C=C2)Cl)N)C3=NC=NC4=C3C=CN4
Summary of the method: as §1

[11] = compound: C1COCCN1CCN2C3=CC=CC=C3N=C2NC(=O)C4=CC(=CC=C4)[N+](=O)[O-] [IRAK-1-4 Inhibitor I]
Summary of the method: as §1

[12] = compound: C=CC(=O)N1CCC[C@@H](n2nc(-c3ccc(Oc4ccccc4)cc3)c3c(N)ncnc32)C1 [ibrutinib]
Summary of the method: as §1

[13] = compound: CC(=O)c1cnc2ccc(-c3cc(Cl)c(O)c(Cl)c3)nc2c1N[C@H]1CC[C@H](CN(C)C)CC1
Summary of the method: as §1

[14] = compound: CC(C)(C)Cn1c(N)nc2ccc(-c3[nH]c(C(C)(C)C)nc3-c3ccc(F)cc3)nc21 [ralimetinib]
Summary of the method: as §1

[15] = compound: CC(C)(O)CC(=O)NCCn1ccc2ncnc(Nc3ccc(Oc4cccc(C(F)(F)F)c4)c(Cl)c3)c21
Summary of the method: as §1

[16] = compound: CC(C)C1=C2N=C(C=C(N2N=C1)NCC3=CC=CC=C3)NCCCCCCN
Summary of the method: as §1

[17] = compound: CC(C)C[C@@H](C=O)NC(=O)[C@H](CC(C)C)NC(=O)[C@H](CC(C)C)NC(=O)OCc1ccccc1
Summary of the method: as §1

[18] = compound: CC(C)N(C[C@H]1O[C@@H](n2cnc3c(N)ncnc32)[C@H](O)[C@@H]1O)[C@H]1C[C@@H](CCc2nc3cc(C(C)(C)C)ccc3[nH]2)C1 [pinometostat]
Summary of the method: as §1

[19] = compound: CC1=C(C2=C(C=C1)C(=O)C3=CC=CC=C3N2CCCN)C
Summary of the method: as §1

[20] = compound: CC1=C(C(CC(=O)N1)C2=CC=C(C=C2)C(F)(F)F)C(=O)NC3=C(C=C4C(=C3)C=NN4)F
Summary of the method: as §1

Row | Target | log2 fold change [1] | log2 fold change [2] | log2 fold change [3] | log2 fold change [4] | log2 fold change [5] | log2 fold change [6] | log2 fold change [7] | log2 fold change [8] | log2 fold change [9] | log2 fold change [10] | log2 fold change [11] | log2 fold change [12] | log2 fold change [13] | log2 fold change [14] | log2 fold change [15] | log2 fold change [16] | log2 fold change [17] | log2 fold change [18] | log2 fold change [19] | log2 fold change [20]
1 | ATIC (UniProt P31939) | inactive: 0.031 | inactive: 0.033 | inactive: 0.062 | inactive: 0.006 | inactive: 0.005 | inactive: -0.067 | inactive: 0.094 | inactive: 0.016 | inactive: -0.031 | inactive: 0.035 | inactive: 0.018 | inactive: 0.013 | inactive: -0.015 | inactive: -0.007 | inactive: 0 | inactive: 0.079 | inactive: -0.044 | inactive: -0.04 | inactive: 0.064 | –
2 | ATP7B (UniProt P35670) | inactive: -0.005 | inactive: 0.073 | inactive: -0.037 | inactive: 0.051 | inactive: 0.119 | inactive: 0.01 | inactive: 0.077 | inactive: -0.009 | inactive: -0.075 | inactive: -0.052 | inactive: -0.022 | inactive: -0.033 | inactive: 0.077 | inactive: 0.043 | inactive: 0.003 | inactive: 0.011 | inactive: 0.015 | inactive: 0.056 | inactive: 0.061 | –
3 | ATP6V1F isoform 2 (UniProt Q16864) | inactive: -0.049 | inactive: -0.017 | inactive: 0.232 | inactive: 0.077 | inactive: 0.04 | inactive: 0.189 | inactive: -0.017 | inactive: -0.024 | inactive: -0.066 | inactive: -0.222 | inactive: 0.053 | inactive: -0.003 | inactive: -0.189 | inactive: -0.054 | inactive: -0.132 | inactive: -0.024 | inactive: -0.059 | inactive: -0.009 | inactive: 0.253 | –
4 | ARMC8 (UniProt Q8IUR7) | inactive: -0.079 | inactive: -0.029 | inactive: -0.029 | inactive: 0.027 | inactive: -0.047 | inactive: 0.013 | inactive: 0.051 | inactive: -0.005 | inactive: -0.002 | inactive: -0.027 | inactive: -0.025 | inactive: -0.017 | inactive: 0.036 | inactive: 0.084 | inactive: -0.011 | inactive: -0.01 | inactive: -0.093 | inactive: -0.021 | inactive: -0.07 | –
5 | ATP11A (UniProt P98196) | inactive: -0.038 | inactive: 0.015 | inactive: 0.004 | inactive: 0.005 | inactive: -0.038 | inactive: 0.035 | inactive: -0.048 | inactive: -0.085 | inactive: -0.035 | inactive: 0.012 | inactive: -0.003 | inactive: 0.007 | inactive: 0.018 | inactive: 0 | inactive: -0.026 | inactive: 0.073 | inactive: 0.052 | inactive: 0.004 | inactive: 0.036 | –
6 | ATP1B2 (UniProt P14415) | inactive: -0.048 | inactive: -0.129 | inactive: 0.122 | inactive: 0.096 | inactive: 0.113 | inactive: 0.072 | inactive: 0.07 | inactive: 0.028 | inactive: 0.016 | inactive: 0.014 | inactive: -0.008 | inactive: 0.055 | inactive: -0.137 | inactive: 0.037 | inactive: -0.067 | inactive: 0.081 | inactive: 0 | inactive: -0.048 | inactive: 0.078 | –
7 | ATAD1 (UniProt Q8NBU5) | inactive: 0.037 | inactive: 0.036 | active: 0.295 | inactive: 0.021 | inactive: 0.054 | inactive: -0.022 | inactive: 0.059 | inactive: 0.123 | inactive: 0 | inactive: -0.006 | inactive: -0.007 | inactive: 0.011 | inactive: -0.081 | active: 0.238 | inactive: -0.083 | inactive: -0.077 | inactive: 0.038 | inactive: 0.041 | inactive: 0.054 | –
8 | ATG10 (UniProt Q9H0Y0) | inactive: -0.037 | – | inactive: 0.018 | inactive: 0.095 | – | inactive: 0.078 | – | – | inactive: 0.174 | inactive: -0.602 | – | inactive: -0.036 | – | – | inactive: 0 | inactive: -0.232 | – | – | inactive: -0.21 | inactive: 0.007
9 | ARRDC1 (UniProt Q8N5I2) | inactive: -0.079 | – | inactive: -0.075 | inactive: 0.038 | – | inactive: -0.05 | inactive: 0.042 | – | inactive: -0.03 | inactive: -0.066 | – | inactive: 0.062 | – | inactive: 0.076 | inactive: 0.102 | inactive: -0.07 | inactive: 0.094 | – | inactive: 0.045 | –
10 | ATP9B (UniProt O43861) | active: 0.406 | inactive: 0.099 | inactive: 0.01 | inactive: -0.132 | inactive: -0.029 | inactive: -0.045 | inactive: 0.033 | inactive: -0.038 | inactive: 0.027 | inactive: -0.064 | inactive: 0.061 | inactive: -0.068 | inactive: -0.034 | inactive: -0.077 | inactive: -0.054 | inactive: -0.071 | inactive: -0.024 | inactive: -0.064 | inactive: 0.003 | –
